Assay: general procedure: peptide synthesis; CTC resin; HATU/DIEA (cyclisation)
Conditions: cyclisation step, HPLC

For Ac-cyclo(1,5)-monoS5AAAC-NH2, the “purity (crude or final not stated)” value was 10.7948%.
